Among all 31,000 sequences or so, about 1,400 (4.5%) were called active.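 Rule for the calls: active = median seed-adjusted z-score above 1 or below -1; inactive = the rest.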 The list shows a part of the results.
Test: Novel Modifiers of Survival Motor Neuron (SMN) Protein: Gene Identification via Genome-wide siRNA Screen;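 note: luminescence tracks full-length SMN protein made from the SMN2 reporter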
Details: HEK293T SMN2-luciferase reporter, siRNA knockdown, 72 h; actives lie on both sides
Outline: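 Luciferase signal, proportional to full-length SMN made from an SMN2 cDNA reporter in stable HEK293T cells, was read 72 h after siRNA reverse transfection. Values were expressed as MAD scores after non-targeting-control normalization and log10 conversion; seed analysis flagged off-targets.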

Sequence | median seed-adjusted z-score
GCAAUAAACCCAGAACUCUTT against KIF2C | inactive: 0.0122
CAUUCGGCAUGAACCAUGATT against ADAMTS10 | inactive: 0.856
GCAGAAAUCAAAUUGAAGATT against QKI | inactive: -0.206
GCACGUACCGCUUCGAAAATT against SLC4A10 | inactive: 0.026
CCAACAUUGUUAAGGUGAUTT against TIAM2 | inactive: -0.0239
AGACAGCUAUGUAUCCACUTT against ZBTB45 | inactive: 0
GGACCUCCAUCGUGUUUGATT against SLC29A4 | inactive: 0.0192
GAGAUGCGCAAAUUCACUCTT against IP6K2 | inactive: -0.193
CCACUACUAUAGUAAAGAATT against MADD | inactive: 0.363
GUUUCAGAUUGGUAUACGATT against CSTF2 | inactive: 0.586
GGUCAGUUCUGGGAAGAUUTT against SLC27A3 | inactive: -0.341
GACAUAUCUUGGAACUUCUTT against CASP14 | inactive: 0.702
CGAAAGGAGUGCUACGCUATT against KIF19 | inactive: 0.342
ACAUCAAGUGUGCACGUAATT against PRDM12 | inactive: 0.245
GAACUGGACUUAUUUGAUUTT against PRKY | inactive: 0.168
GAGCCUUACCAUCAAACUUTT against PPP1R11 | inactive: -0.498
CCACAGAGAUAAGCAGUCATT against IL15RA | inactive: -0.0113
GCAUAUCCACACCACCCAATT against KRTAP5-6 | inactive: 0.185
CCUCCUAGAUGAUAUCAGUTT against SOCS7 | inactive: 0.179
GUCAUGACAUGUUACCCAATT against TTBK2 | inactive: 0.423
GGAGUUUGCGUUUGAGGUATT against PLCD1 | inactive: -0.0473
CAAUCUGUCACGUAAGUCATT against EXTL3 | inactive: -0.353
AAAUGAUACAUACUGGAAATT against ZNF140 | inactive: 0.587
GCUUCUAUGAGUACCAGAATT against KLHL20 | inactive: -0.0828
GGACCUGAUUGAUGCCGUCTT against PYCR1 | inactive: -0.171
GGAUACACUCAGACUCUAATT against VDAC1 | inactive: 0.133
CCUUACUACAUGGAACUUATT against GINS2 | inactive: 0.553

Part of the list above, comma-delimited.
Sequence,median seed-adjusted z-score
GCAGAAAUCAAAUUGAAGATT against QKI,inactive: -0.206
GCACGUACCGCUUCGAAAATT against SLC4A10,inactive: 0.026
CCAACAUUGUUAAGGUGAUTT against TIAM2,inactive: -0.0239
AGACAGCUAUGUAUCCACUTT against ZBTB45,inactive: 0
GUUUCAGAUUGGUAUACGATT against CSTF2,inactive: 0.586
ACAUCAAGUGUGCACGUAATT against PRDM12,inactive: 0.245
GAACUGGACUUAUUUGAUUTT against PRKY,inactive: 0.168
CCACAGAGAUAAGCAGUCATT against IL15RA,inactive: -0.0113
GCAUAUCCACACCACCCAATT against KRTAP5-6,inactive: 0.185
GUCAUGACAUGUUACCCAATT against TTBK2,inactive: 0.423
GGAGUUUGCGUUUGAGGUATT against PLCD1,inactive: -0.0473
GCUUCUAUGAGUACCAGAATT against KLHL20,inactive: -0.0828
CCUUACUACAUGGAACUUATT against GINS2,inactive: 0.553

(list continues)

Sequence | median seed-adjusted z-score
CGGUGGUCAUGAAUCGGUUTT against AQP5 | inactive: -0.116
GGACCGAAGUGACUGUCUATT against CLNS1A | inactive: 0.232
CGUUCUAUCAACAAACUCATT against EIF2S1 | inactive: -0.175
CGAUGAAGGGUUCCGAUUATT against CR1 | inactive: 0.143
GGAGUCAACUGUGACAAGATT against TCEA3 | inactive: -0.28
GCUCAUUCCUUUUCGAGCATT against PEG3 | inactive: 0.5
GCAGCUUUAACCAUUAAAATT against LTB4R | inactive: 0.498
GGUGGGUCCAGAUAACAGATT against AMIGO2 | inactive: -0.258
GGAGCAAAACCAAGGAUCATT against RBM24 | inactive: 0.0471
CGACUUUCUACUAUUCGAATT against ABCB5 | inactive: 0.495
CUACCGAAGUGAUCCGAAUTT against RIMS2 | inactive: 0.534
CGUCGGCGAGUACAACAAATT against CST3 | inactive: -0.188
GUGUGUUUGUGGGCCCUGATT against FKBP2 | inactive: -0.0466
GGAGGUGUAUGAGCCCGAUTT against BIN1 | inactive: 0
GGACUUCAGGGUUUAACAATT against FOLR1 | active: -1.31
GGACCGUACCACUUCAGAATT against ABCC6 | inactive: 0.108
CGUCUAAUGCUGCUCCACATT against AGPAT1 | active: -1.38
GGAAUGCAUCUACAUCAUATT against NETO1 | inactive: 0.0504
GGGUCGUAGCAACAAAGGATT against PAFAH1B1 | inactive: 0.391
ACUCCAUCCUAACCACCCATT against TUBA3E | inactive: -0.35
GCGCGAAGAUUGAGCAGUATT against MYO7A | inactive: -0.0127
CCCUCAUAGUAUCUAUUCATT against ABCB7 | inactive: -0.0991
GCCUGCAAGUGAAGCGGAATT against PRMT1 | inactive: -0.596
GAUCAGAGAAAAUACGGUATT against NARS | inactive: -0.361
GCUUUACCAGUUUCGAUUATT against ACTR8 | inactive: -0.366
CAAGGUAUUAUGCAACGUATT against FLG | inactive: 0.221
GAGCCCUCCUGAUUUUGAATT against TERF2IP | inactive: 0.765

— PubChem BioAssay AID1347426 (Functional Genomics Laboratory (NCATS/FGL), 2020)
